# Test results from the RNAGym collection of RNA variant scans (doi:10.1126/science.aae0568).
# Variants at the background level are over-represented here.
# B1: tRNA (parent)
# chain: GUUCCGUUGGCGUAAUGGUAACGCGUCUCCCUCCUAAGGAGAAGACUGCGGGUUCGAGUCCCGUACGGAACG
# Variants of: B1
# Experiment: yeast fitness relative to wild type (ratio to wild type); higher = fitter; tRNA-Arg(CCU), competitive growth, 37 C, YPD
# How it was run: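 Genotype frequency changes were the basis for Darwinian fitness relative to wild type. The frequencies came from 100-nucleotide paired-end sequencing of gene amplicons from the start population and each end population of pooled yeast strains with tRNA-Arg(CCU) gene variants at the native locus. Competition ran in YPD at 37°C for 24 hours in six replicates, genotypes needed ≥ 100 starting reads, and estimates < 0.5 were set to 0.5.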
row,Variant,yeast fitness
1,U2G C27A C34G A65G,≤ 0.5
2,U19C A21C C27U C61G,≤ 0.5
3,C61A C66G,0.572
4,C33G G39A C66G,≤ 0.5
5,U3C C4U,1.01
6,U28A A43C G68C,≤ 0.5
7,C4A A40U G52C A65U G68U,≤ 0.5
8,A20C C22U G58A G67A,≤ 0.5
9,G10C A42U C46G,≤ 0.5
10,U3A C4U U8A G10A A21G C49G A57G G67U,0.655
11,G18A C33U A37U U59A A65U,≤ 0.5
12,A40C A43C,1.04
13,U3C G17C A40G C61U,≤ 0.5
14,U7A A15C A43U,≤ 0.5
15,G12A A20C C24G U54A C60G C66U,≤ 0.5
16,G12A C22G C24G U47C,≤ 0.5
17,G6C A40U C61A G63C,≤ 0.5
18,C5U A14G A45C A65C,≤ 0.5
19,C5G A14U A20U G41A A57G,≤ 0.5
20,U26A C27A U28A C34U G68A A69C,0.534
21,U7A G9C G17C G48A U53A,≤ 0.5

row,Variant,yeast fitness
1,G12A C49U C61G,≤ 0.5
2,G12A C29A A37G,≤ 0.5
3,U13A C33G A43G C66U,≤ 0.5
4,G17C U54A,≤ 0.5
5,A14U A20C G23A C46A U64C,≤ 0.5
6,U7A U8A G56C,≤ 0.5
7,C5U C27G C46U,0.753
8,U8C G10A U19C C49U,≤ 0.5
9,U7G C30U G38A G50A,0.589
10,A20C A40G U47G,≤ 0.5
11,G38A C62G,0.648
12,G12A C24A A37U C60A C66U,≤ 0.5
13,G17C A21G C61A C62U,≤ 0.5
14,G18C C30G A70U,≤ 0.5
15,A15G G23A C34G G67A,≤ 0.5
16,A14U C34G C46A C62U A69C,≤ 0.5
17,A15U A37U C66G G67C,≤ 0.5
18,U2C U32G C60G G68A,≤ 0.5
19,G6A A40C A45C,≤ 0.5
20,A20U G25A C49G,0.619
21,C34U A40C G51A C61G,≤ 0.5

row,Variant,yeast fitness
1,U7A U16C A21U U26A U47C A70G,≤ 0.5
2,C30U A57C C66A,≤ 0.5
3,C11G G38C C61U,≤ 0.5
4,C5U G17C A57G,≤ 0.5
5,G6C C11G A15C G25C C27G C30G G38C C60G A70G,≤ 0.5
6,A36G A43C A65U,≤ 0.5
7,A37C C49A,0.651
8,C30G C31G U32C A37G,≤ 0.5
9,A14U C30A C66U,0.547
10,C11U A42C G50C C66U,≤ 0.5
11,C4G G10A G41C C62A,≤ 0.5
12,G6A U16G A21G A40G A42U C55A A69C,≤ 0.5
13,A14G C46U,0.886
14,U16G U35A G51C G68A,≤ 0.5
15,U7G C30A C62A,≤ 0.5
16,C11U A14C U26C C55U,≤ 0.5
17,C4U C24A C31A,≤ 0.5
18,C4G U8G C24G,≤ 0.5
19,U32G C33A C62G C66U,≤ 0.5
20,U2C G23C A57G,≤ 0.5
21,C30G G44A G63A,≤ 0.5

row,Variant,yeast fitness
1,G10C C31G G41A,≤ 0.5
2,C5U U28C G38A A40C,≤ 0.5
3,U19G C24A C34G,0.75
4,G17C G23C A43U C49A A70U,≤ 0.5
5,C11A C22G C30G,≤ 0.5
6,C49A A65C,0.686
7,U19C G25A C55U A69C,≤ 0.5
8,C27G C34A C61U,≤ 0.5
9,C5U G12C A40C,≤ 0.5
10,U8G C22G G48A C60A U64C A69C,0.561
11,G10C U16A A20G A37G C46G U59C C60A,≤ 0.5
12,G6A A20U C62U A65G,≤ 0.5
13,C33U G39C A45C,≤ 0.5
14,C29A U47A G48A,≤ 0.5
15,C4U G6A C29G G41A C60A,≤ 0.5
16,G10A C22G,0.637
17,G10A A20G A21U U53A C66U,≤ 0.5
18,G23C C29G G63C C66G,≤ 0.5
19,G12C A20G C46G,0.548
20,G17C C30G A57C,≤ 0.5
21,U19A U35A G39A,≤ 0.5
